Laboratory results published in article PMC4479000.

Amino acid sequences for entries named in this document (tags omitted). A change or cut given only in a name is not applied to a line headed by its entry.
UniProt Q04721: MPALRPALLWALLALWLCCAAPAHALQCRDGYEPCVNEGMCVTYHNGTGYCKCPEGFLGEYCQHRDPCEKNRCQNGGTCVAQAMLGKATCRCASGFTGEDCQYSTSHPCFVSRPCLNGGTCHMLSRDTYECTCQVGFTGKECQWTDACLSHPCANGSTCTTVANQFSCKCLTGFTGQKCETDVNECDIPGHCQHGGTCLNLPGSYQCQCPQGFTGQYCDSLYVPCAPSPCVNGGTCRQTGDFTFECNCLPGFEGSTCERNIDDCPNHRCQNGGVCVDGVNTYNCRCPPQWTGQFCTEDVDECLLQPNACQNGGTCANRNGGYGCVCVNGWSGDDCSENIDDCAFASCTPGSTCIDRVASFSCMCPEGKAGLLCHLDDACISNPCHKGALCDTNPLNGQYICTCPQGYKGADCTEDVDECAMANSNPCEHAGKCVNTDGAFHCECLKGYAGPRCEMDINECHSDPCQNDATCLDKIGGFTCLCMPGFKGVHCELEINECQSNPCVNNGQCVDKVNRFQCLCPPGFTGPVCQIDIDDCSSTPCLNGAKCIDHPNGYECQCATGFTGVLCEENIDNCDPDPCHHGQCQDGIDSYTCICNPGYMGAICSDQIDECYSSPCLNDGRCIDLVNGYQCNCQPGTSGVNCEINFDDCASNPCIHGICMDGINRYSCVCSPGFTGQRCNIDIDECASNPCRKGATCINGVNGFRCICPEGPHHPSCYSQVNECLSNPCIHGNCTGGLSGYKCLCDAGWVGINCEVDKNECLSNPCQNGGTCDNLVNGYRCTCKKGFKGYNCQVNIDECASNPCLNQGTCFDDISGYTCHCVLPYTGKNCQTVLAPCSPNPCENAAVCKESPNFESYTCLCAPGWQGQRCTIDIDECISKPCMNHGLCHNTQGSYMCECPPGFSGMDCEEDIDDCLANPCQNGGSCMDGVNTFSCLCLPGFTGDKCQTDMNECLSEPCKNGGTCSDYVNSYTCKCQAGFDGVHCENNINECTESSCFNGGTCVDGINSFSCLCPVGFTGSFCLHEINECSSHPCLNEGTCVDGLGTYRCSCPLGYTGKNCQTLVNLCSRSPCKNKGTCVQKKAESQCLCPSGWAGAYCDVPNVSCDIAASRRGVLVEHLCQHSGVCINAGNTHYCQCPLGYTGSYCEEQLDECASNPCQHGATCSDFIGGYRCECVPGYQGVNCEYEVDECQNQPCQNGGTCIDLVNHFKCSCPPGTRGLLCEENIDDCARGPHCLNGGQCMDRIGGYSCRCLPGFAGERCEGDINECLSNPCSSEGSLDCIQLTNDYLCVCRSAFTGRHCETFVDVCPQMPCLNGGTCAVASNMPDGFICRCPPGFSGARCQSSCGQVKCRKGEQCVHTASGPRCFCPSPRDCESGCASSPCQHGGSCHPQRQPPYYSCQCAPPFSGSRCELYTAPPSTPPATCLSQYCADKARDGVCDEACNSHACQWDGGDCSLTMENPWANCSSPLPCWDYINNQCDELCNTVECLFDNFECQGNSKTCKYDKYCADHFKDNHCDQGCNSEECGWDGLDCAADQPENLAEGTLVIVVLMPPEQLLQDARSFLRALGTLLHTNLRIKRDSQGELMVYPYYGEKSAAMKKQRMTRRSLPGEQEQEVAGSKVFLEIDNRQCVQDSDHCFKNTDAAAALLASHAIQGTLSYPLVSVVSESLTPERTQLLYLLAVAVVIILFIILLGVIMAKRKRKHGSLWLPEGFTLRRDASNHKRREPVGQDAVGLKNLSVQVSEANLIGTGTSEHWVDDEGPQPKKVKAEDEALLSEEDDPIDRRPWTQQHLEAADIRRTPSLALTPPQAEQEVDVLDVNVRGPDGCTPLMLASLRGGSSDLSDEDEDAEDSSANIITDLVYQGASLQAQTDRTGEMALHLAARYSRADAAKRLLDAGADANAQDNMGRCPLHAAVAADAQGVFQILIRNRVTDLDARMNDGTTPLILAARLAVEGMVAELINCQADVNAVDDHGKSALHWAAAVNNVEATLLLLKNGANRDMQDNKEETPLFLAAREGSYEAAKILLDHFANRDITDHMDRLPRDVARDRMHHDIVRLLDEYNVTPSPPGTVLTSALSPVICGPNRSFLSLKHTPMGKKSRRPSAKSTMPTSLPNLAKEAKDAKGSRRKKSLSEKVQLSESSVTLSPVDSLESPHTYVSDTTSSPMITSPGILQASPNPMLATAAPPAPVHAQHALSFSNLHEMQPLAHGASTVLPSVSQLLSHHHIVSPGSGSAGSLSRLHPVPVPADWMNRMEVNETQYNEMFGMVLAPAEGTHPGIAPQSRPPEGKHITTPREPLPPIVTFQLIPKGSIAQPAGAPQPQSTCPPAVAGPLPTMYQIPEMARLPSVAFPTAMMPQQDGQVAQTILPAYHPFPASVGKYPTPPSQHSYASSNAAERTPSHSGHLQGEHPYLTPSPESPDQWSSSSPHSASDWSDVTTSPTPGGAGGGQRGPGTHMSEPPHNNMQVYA

Legend:
GFP-C8orf4 = target: T1, GFP-C8orf4 (UniProt Q9NR00); assay: co-IP; Various N2ICD truncation constructs co-transfected with GFP-C8orf4 for domain mapping
T1 sequence: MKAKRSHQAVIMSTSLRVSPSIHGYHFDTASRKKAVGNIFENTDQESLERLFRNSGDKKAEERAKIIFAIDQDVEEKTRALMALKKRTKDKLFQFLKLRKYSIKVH

[1] = target: T2, Gal4 DNA-binding domain (BD) fused C8orf4 (UniProt Q9NR00); assay: two-hybrid; Matchmaker Gold Yeast Two-Hybrid system; BD-C8orf4 (pGBKT7) and AD-N2ICD or AD-N2ECD (pGADT7) co-transformed into AH109; SD plate lacking adenine, histidine, tryptophan and leucine; beta-galactosidase activity
T2 sequence: T1 sequence

Row | binding (GFP-C8orf4) | binding [1] | Substance
1 | binds |  | ankyrin repeat domain of NOTCH2 (N2ICD truncation construct) (from UniProt Q04721) (domain or fragment)
2 |  | binds | Gal4-activating domain (AD) fused N2ICD (from UniProt Q04721) (domain or fragment)

Results are given in words; binding and its absence hold for the method and conditions named. Binding calls can cover weak binding; strength is not graded here. Sequences can lack the tags named with a protein. For some assays here: Binding seen in cells or lysates may run through a third protein.
